Source: the supplement of paper PMC11732987, “Enantioselective OTUD7B fragment discovery through chemoproteomics screening and high-throughput optimisation” (Communications Chemistry, 2025)
Some of the results follow. The data scatter; read single values as rough.

The chains behind the UniProt entries cited, without tags or fusion partners. Where a name states a change or a piece, a line headed by the entry shows the natural chain unless it says otherwise. Residues count along the entry.
UniProt Q7Z3U7: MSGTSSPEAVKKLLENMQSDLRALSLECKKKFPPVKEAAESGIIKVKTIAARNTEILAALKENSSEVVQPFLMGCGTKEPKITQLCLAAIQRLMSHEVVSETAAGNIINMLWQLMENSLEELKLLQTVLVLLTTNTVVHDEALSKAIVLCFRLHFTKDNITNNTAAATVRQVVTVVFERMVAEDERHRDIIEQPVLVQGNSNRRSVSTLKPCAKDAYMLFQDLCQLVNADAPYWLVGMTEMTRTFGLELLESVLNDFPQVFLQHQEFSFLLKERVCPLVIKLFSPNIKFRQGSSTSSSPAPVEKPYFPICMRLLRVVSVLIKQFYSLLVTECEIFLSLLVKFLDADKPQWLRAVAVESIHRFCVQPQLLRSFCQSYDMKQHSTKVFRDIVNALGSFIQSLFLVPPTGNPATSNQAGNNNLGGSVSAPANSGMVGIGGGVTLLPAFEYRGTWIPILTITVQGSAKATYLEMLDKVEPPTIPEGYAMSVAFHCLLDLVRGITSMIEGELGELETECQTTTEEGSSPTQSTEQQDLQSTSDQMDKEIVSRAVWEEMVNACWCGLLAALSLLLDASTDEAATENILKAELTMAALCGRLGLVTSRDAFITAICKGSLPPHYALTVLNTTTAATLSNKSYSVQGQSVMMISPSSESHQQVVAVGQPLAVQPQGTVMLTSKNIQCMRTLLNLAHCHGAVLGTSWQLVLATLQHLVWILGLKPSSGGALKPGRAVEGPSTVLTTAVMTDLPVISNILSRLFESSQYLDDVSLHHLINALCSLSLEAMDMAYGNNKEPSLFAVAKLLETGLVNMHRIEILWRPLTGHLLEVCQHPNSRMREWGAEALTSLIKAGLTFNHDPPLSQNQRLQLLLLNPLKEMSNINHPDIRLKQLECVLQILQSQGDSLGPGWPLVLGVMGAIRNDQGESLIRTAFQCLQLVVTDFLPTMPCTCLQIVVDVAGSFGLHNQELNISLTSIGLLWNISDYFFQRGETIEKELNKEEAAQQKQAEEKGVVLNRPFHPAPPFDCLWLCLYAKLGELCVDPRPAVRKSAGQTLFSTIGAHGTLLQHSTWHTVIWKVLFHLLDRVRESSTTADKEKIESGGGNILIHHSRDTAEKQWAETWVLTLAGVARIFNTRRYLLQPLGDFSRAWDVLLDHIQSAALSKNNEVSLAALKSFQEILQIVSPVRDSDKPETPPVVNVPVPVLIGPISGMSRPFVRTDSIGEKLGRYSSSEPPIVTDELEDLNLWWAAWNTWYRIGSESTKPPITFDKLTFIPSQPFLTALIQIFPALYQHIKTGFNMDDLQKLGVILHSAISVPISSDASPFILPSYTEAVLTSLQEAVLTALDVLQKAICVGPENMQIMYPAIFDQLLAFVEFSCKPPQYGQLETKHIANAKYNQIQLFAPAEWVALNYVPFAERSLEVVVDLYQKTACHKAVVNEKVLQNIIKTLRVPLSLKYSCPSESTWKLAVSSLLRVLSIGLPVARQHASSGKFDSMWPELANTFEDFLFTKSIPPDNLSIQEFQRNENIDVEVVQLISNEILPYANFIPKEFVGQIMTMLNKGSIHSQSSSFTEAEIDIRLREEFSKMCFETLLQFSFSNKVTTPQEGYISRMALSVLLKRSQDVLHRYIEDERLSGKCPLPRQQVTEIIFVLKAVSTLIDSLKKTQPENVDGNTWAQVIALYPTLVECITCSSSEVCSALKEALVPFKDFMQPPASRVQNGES
UniProt Q96IZ6: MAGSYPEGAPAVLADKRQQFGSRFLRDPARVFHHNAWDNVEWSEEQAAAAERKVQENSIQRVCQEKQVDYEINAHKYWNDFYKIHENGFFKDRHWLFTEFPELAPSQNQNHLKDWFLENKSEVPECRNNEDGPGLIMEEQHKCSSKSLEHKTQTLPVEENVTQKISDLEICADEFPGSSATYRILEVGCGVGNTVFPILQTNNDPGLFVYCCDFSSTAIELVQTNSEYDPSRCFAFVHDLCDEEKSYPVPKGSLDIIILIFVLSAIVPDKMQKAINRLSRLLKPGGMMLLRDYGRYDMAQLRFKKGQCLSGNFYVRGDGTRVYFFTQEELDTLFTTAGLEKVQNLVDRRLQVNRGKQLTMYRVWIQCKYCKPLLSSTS
UniProt P46013: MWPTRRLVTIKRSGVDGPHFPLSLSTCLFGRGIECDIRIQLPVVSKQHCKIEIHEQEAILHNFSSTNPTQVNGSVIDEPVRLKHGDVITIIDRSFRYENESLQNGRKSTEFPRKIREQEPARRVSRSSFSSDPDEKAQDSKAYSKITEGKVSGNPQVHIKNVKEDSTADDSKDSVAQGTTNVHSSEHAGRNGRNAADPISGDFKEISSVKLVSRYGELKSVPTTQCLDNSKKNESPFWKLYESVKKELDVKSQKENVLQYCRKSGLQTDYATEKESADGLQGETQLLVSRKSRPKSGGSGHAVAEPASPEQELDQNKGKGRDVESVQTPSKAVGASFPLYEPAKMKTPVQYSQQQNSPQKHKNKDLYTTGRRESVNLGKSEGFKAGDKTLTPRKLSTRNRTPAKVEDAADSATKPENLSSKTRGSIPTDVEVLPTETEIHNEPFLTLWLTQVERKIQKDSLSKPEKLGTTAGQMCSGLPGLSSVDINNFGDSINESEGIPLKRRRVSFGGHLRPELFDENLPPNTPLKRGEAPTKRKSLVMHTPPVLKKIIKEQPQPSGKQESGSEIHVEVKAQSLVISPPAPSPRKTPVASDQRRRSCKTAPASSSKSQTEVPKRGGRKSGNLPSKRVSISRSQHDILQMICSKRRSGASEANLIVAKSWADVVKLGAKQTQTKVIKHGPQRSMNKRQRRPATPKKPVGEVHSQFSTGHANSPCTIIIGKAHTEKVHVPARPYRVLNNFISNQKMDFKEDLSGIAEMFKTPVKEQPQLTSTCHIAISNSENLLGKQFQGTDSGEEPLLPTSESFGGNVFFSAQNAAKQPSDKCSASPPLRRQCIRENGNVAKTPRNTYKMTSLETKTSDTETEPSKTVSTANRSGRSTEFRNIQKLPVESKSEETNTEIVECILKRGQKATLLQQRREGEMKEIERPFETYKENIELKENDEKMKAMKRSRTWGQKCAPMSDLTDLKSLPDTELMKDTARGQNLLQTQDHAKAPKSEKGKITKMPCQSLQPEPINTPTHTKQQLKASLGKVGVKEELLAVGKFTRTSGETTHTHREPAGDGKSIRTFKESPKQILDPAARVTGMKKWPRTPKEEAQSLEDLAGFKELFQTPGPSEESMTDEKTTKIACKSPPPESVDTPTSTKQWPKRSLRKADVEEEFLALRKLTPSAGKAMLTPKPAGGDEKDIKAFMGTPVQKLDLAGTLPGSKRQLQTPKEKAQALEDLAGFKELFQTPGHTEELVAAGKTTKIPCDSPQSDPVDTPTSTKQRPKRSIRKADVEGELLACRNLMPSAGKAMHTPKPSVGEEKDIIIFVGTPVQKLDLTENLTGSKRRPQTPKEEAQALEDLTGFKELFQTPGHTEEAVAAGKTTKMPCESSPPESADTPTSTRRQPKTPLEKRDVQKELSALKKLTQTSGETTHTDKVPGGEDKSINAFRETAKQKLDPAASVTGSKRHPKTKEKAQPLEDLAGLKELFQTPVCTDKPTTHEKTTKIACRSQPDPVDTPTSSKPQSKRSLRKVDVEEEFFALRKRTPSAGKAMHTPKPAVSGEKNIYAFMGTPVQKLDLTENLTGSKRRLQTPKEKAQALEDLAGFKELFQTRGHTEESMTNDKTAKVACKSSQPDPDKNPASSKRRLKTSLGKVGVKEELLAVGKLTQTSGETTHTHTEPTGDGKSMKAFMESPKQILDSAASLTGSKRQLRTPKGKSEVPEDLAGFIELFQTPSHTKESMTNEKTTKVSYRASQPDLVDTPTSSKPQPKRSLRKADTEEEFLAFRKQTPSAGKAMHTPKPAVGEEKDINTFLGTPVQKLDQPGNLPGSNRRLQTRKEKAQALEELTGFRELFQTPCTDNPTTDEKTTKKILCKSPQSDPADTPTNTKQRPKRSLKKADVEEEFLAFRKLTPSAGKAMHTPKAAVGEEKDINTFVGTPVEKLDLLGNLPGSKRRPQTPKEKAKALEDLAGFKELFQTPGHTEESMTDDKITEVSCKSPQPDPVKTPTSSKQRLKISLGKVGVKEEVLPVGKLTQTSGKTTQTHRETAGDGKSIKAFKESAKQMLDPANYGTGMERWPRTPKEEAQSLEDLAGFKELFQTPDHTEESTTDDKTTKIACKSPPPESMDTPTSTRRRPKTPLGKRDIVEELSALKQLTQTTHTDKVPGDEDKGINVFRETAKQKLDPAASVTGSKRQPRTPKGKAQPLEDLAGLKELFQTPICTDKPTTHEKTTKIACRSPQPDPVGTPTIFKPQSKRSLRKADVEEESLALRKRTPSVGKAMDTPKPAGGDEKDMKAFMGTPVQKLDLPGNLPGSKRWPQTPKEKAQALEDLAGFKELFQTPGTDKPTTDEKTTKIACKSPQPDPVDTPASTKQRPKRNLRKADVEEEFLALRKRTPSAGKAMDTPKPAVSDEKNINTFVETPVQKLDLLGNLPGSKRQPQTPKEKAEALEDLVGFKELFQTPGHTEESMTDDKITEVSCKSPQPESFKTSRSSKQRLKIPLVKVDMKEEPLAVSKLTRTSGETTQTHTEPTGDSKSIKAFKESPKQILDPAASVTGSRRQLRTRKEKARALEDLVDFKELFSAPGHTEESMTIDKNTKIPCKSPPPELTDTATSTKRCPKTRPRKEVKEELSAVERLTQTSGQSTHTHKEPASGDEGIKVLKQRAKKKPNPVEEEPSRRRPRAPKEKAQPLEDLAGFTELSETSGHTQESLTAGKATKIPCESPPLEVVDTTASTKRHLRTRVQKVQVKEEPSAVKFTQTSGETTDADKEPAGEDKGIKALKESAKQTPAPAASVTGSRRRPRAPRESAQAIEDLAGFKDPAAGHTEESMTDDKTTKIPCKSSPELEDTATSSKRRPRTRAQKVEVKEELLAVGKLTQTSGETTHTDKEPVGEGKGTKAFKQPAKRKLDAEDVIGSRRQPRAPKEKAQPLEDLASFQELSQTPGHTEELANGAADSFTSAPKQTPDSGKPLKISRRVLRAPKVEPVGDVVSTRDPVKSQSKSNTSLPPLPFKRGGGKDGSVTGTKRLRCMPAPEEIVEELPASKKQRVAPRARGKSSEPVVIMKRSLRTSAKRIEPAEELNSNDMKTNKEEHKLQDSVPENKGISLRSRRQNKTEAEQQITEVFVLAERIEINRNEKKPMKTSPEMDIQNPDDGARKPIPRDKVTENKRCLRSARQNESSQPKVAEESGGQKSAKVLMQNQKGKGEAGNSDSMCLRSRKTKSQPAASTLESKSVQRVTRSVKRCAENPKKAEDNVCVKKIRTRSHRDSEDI
UniProt P16455: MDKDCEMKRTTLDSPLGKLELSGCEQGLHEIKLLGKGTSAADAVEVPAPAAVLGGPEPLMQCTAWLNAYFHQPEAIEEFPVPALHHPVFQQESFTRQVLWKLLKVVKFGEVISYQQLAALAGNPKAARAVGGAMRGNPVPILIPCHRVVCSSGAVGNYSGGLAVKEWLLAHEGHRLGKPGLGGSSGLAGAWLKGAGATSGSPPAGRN
UniProt Q8IWA4, 420-439: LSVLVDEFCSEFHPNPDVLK
UniProt Q9NPJ6: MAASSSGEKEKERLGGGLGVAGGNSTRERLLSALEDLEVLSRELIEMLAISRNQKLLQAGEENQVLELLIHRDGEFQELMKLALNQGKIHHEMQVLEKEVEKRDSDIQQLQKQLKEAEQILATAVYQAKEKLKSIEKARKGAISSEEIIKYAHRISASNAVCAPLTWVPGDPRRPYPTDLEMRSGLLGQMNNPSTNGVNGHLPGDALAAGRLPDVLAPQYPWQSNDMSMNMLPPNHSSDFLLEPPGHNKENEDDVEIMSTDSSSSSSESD
UniProt A9UHW6: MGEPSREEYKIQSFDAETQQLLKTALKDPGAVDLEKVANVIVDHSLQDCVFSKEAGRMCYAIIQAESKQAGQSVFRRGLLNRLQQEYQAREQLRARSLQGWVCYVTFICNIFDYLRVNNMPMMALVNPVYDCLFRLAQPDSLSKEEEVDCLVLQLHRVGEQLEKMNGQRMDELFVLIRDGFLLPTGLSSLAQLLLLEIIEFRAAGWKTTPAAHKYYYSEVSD
UniProt Q9H8H3: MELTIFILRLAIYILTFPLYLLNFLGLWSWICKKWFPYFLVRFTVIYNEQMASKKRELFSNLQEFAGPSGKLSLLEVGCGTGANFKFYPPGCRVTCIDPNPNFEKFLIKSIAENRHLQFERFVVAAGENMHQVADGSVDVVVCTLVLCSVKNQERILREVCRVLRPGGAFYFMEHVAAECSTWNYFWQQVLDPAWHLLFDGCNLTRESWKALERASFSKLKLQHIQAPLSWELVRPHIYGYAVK

Legend:
[1] = compound: ClCC(=O)N[C@@H]1CCCc2ccccc12; experiment: log2 mean competition ratio of IA-DTB cysteine labelling (DMSO/compound) (log2 ratio); higher = stronger cysteine engagement by compound; conditions: treatment time: 4 h, cell line lysate: HEK293T
Experimental: (§1)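 IA-DTB competitive cysteine chemoproteomics in HEK293T RIPA lysate. Lysates were treated with compound 29 or 30 at 50 or 200 µM for 4 h, then IA-DTB (500 µM, 1 h), trypsin-digested, NeutrAvidin-enriched and analysed by diaPASEF. Competition ratio = intensity DMSO / intensity compound (n=4 treated, n=64 DMSO); binding: mean log2 CR ≥ 1 and p ≤ 0.05 plus QC filters. Target is the cysteine site.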

[2] = compound: ClCC(=O)N[C@H]1CCCc2ccccc12; experiment: as above; conditions: treatment time: 4 h, cell line lysate: HEK293T
Experimental: as §1

| Target | log2 mean competition ratio ([1]; 50 µM) | log2 mean competition ratio ([1]; 200 µM) | log2 mean competition ratio ([2]; 50 µM) | log2 mean competition ratio ([2]; 200 µM) |
| --- | --- | --- | --- | --- |
| MON2 C28 (UniProt Q7Z3U7) | -0.283 | -0.219 | 0.157 | -0.00169 |
| METTL2A C171 (UniProt Q96IZ6) | -0.148 | 0.187 | -0.0179 | 0.104 |
| MMS22L C1120 (UniProt Q6ZRQ5) | -0.0672 | -0.147 | -0.576 | -0.269 |
| MELK C649 (UniProt Q14680) | -0.0378 | -0.122 | 0.378 | 0.259 |
| MKI67 C261 (UniProt P46013) | 0.409 | -0.0888 | 0.811 | 0.0954 |
| MIS18BP1 C206 | -0.256 | -0.0567 | -0.109 | 0.133 |
| MIOS C748 (UniProt Q9NXC5) | 0.219 | 0.0598 | 0.113 | -0.00929 |
| MIA3 C1486 (UniProt Q5JRA6) | -0.0102 | -0.0645 | 0.34 | 0.0803 |
| MGMT C150 (UniProt P16455) | -0.389 |  | 0.102 | -0.412 |
| MFN1 C428 (UniProt Q8IWA4) | 0.00404 | -0.179 | -0.58 | 0.33 |
| MED13 C1274 (UniProt Q9UHV7) | -0.215 | 0.325 | -0.532 | -0.0196 |
| MKLN1 C446 (UniProt Q9UL63) | -0.238 | 0.019 | -0.525 | -0.175 |
| MKRN1 C186 (UniProt Q9UHC7) | -0.12 | 0.0888 | -0.354 | 0.24 |
| MIB1 C342 (UniProt Q86YT6) | 0.147 | 0.649 | 0.25 | 0.0408 |
| MRPL12 C45 (UniProt P52815) | 0.0123 | -0.0307 | 0.175 | 0.0936 |
| MRC2 C1234 (UniProt Q9UBG0) | -0.147 | 0.415 | 0.0898 | 0.527 |
| MED4 C162 (UniProt Q9NPJ6) | 0.441 | -0.26 | 0.618 | -0.121 |
| MIF4GD C49 (UniProt A9UHW6) | -0.196 | 0.355 | -0.464 | 0.128 |
| MICAL1 C837 (UniProt Q8TDZ2) | -0.0392 | 0.0924 | 0.0169 | 0.161 |
| MON2 C212 (UniProt Q7Z3U7) | 0.346 | 0.0304 | 0.617 | 0.0457 |
| METTL7A C96 (UniProt Q9H8H3) | 0.0182 | 0.0841 | 0.023 | 0.0742 |
| MIA2 C1187 (UniProt Q96PC5) | -0.221 | 0.237 | 0.13 | 0.292 |

Only log2 mean competition ratio ([1]; 50 µM) and log2 mean competition ratio ([2]; 200 µM) (2 entries from above):

| Target | log2 mean competition ratio ([1]; 50 µM) | log2 mean competition ratio ([2]; 200 µM) |
| --- | --- | --- |
| MON2 C212 (UniProt Q7Z3U7) | 0.346 | 0.0457 |
| METTL7A C96 (UniProt Q9H8H3) | 0.0182 | 0.0742 |
